Experimental data from PMC8945107 (ACS Omega, 2022).

Tested on: A549
Experiment: MTT antiproliferative / cell viability assay, A549
Assay type: cell-based
Details: Homo sapiens, A549, 48 h, read-out: IC50 A549

COc1cccc2c1C(=O)c1c(O)c3c(c(O)c1C2=O)C[C@@](O)(C(=O)CO)C[C@@H]3O[C@H]1C[C@H](N)[C@H](O)[C@H](C)O1 [DOX, Doxorubicin]
IC50: 2230 ± 160 nM
